In article doi:10.1101/2020.01.31.926402:
No constants are given. Whether binding was seen depends on the method and setting. In cells and extracts the contact can be indirect. Binding can be weak; no strength is given.

Molecular target: Br-FLAG (murine BR) (murine)
Test: co-IP

B1: UQCRC1, mouse (protein, UniProt Q9CZ13 35-480)
chain: TATFAQALQSVPETQVSILDNGLRVASEQSSHATCTVGVWIDAGSRYETEKNNGAGYFLEHLAFKGTKNRPGNALEKEVESIGAHLNAYSTREHTAYLIKALSKDLPKVVELLADIVQNSSLEDSQIEKERDVILREMQENDASMQNVVFDYLHATAFQGTPLAQAVEGPSENVRRLSRTDLTDYLNRHYKAPRMVLAAAGGVEHQQLLDLAQKHLSSVSRVYEEDAVPGLTPCRFTGSEIRHRDDALPLAHVAIAVEGPGWANPDNVTLQVANAIIGHYDCTYGGGVHLSSPLASVAVANKLCQSFQTFNISYSDTGLLGAHFVCDAMSIDDMVFFLQGQWMRLCTSATESEVTRGKNILRNALVSHLDGTTPVCEDIGRSLLTYGRRIPLAEWESRIQEVDAQMLRDICSKYFYDQCPAVAGYGPIEQLPDYNRIRSGMFWLRF
binding: binds
